Test results: paper doi:10.1101/163998
No constants are given. Whether binding was seen depends on the method and setting. Binding seen in cells or lysates may run through a third protein. These calls come from enrichment with a bait or labelling near it, and not all partners need be listed.

By UniProt entry, the sequences of proteins in these tests, tags left out.
UniProt Q13568: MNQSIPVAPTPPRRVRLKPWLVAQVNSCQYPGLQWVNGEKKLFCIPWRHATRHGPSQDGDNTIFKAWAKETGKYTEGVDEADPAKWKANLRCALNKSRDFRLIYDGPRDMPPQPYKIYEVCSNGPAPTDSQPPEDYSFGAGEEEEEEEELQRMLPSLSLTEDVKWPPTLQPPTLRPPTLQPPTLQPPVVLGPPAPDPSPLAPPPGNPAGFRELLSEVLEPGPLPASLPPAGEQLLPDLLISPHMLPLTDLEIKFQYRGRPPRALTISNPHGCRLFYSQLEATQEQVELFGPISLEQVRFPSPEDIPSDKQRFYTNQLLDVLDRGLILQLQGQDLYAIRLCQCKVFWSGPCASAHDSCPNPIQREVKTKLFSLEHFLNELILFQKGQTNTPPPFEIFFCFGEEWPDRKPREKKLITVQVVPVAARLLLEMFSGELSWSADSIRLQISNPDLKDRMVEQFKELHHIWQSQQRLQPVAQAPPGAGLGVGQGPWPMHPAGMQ
UniProt Q12905: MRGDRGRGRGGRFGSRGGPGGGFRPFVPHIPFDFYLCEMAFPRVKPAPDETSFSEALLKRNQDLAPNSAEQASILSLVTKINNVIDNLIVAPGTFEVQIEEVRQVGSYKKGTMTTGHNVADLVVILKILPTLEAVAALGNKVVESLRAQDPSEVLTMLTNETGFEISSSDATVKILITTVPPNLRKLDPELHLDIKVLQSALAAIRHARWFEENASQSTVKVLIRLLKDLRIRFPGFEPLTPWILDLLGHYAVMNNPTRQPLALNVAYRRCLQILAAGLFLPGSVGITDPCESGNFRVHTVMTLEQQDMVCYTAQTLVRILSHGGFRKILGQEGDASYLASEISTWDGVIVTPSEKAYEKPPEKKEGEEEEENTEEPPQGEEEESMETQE

Molecular target: IRF5 immunoprecipitated for mass spectrometry (UniProt Q13568)
Assay: affinity purification with mass spectrometry

- binding: binds
Substance: Interleukin Enhancer Binding Factor 2 (ILF2) (from UniProt Q12905 1-390)
